# Measured values taken from PMC11998518.
# Protein sequences, listed by entry. Tags and fused reporters are not part of them. Residues count along the entry.
# UniProt A1Z0Q5, residues 26-394: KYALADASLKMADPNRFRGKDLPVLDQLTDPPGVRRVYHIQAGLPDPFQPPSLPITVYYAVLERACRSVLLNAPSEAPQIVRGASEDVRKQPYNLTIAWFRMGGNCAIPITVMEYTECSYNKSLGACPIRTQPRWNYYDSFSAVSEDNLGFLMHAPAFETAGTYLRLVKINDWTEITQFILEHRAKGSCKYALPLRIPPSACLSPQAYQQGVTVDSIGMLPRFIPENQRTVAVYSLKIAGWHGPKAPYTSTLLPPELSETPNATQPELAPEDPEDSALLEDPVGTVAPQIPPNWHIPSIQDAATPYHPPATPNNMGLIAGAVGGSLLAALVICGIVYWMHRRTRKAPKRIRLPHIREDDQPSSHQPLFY
# These are yes or no findings as the source states them, for the method shown. For some assays here: Binding seen in cells or lysates may run through a third protein. Some results given as binding are weak or reduced against the parent protein; the word gives no strength. Sequences can lack the tags named with a protein.
# B1: soluble ectodomain form of nectin-1 (amino acids Gln 31-Thr 334) with a C-terminal 6x-His tag (receptor, UniProt Q15223 31-334)
# chain: QVVQVNDSMYGFIGTDVVLHCSFANPLPSVKITQVTWQKSTNGSKQNVAIYNPSMGVSVLAPYRERVEFLRPSFTDGTIRLSRLELEDEGVYICEFATFPTGNRESQLNLTVMAKPTNWIEGTQAVLRAKKGQDDKVLVATCTSANGKPPSVVSWETRLKGEAEYQEIRNPNGTVTVISRYRLVPSREAHQQSLACIVNYHMDRFKESLTLNVQYEPEVTIEGFDGNWYLQRMDVKLTCKADANPPATEYHWTTLNGSLPKGVEAQNRTLFFKGPINYSLAGTYICEATNPIGTRSGQVEVNIT
# How the values were obtained:
# [1] = molecular target: HSV-1 glycoprotein D (gD) in the virion envelope of HSV-1 KOS (HSV-1 (strain KOS)) (UniProt A1Z0Q5); experiment: co-sedimentation; HSV-1 ΔgC or gCR virions pre-incubated with 20 µg anti-gD MAb MC14 or DL11 (1 h, 37°C), then 15 µg soluble nectin-1 for 2 h at 4°C; 60%-30%-10% sucrose gradient, virus band dot-blotted and probed with anti-6x-His antibody; only the binder purified
# [2] = molecular target: HSV-1 glycoprotein D (gD) in the virion envelope of HSV-1 KOS (HSV-1 (strain KOS)) (UniProt A1Z0Q5); experiment: ELISA; virus ELISA (vELISA): VP5 equivalents of HSV-1 gCR or ΔgC virions bound to a MaxiSorp plate, fixed with 4% paraformaldehyde, blocked with 10% BSA; His-tagged soluble nectin-1 in 10-fold dilutions from 1 µM, 2 h at room temperature; detected with anti-6x-His-HRP; only the binder purified
binder,measurement,setting,value
B1,binding,[1],binds
same,binding,[2],binds
